Measured values: the supplement of paper PMC4604168 (melanoma cell lines)
This is one part of the list. Repeats are few or missing, and single values can be far off.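 Cells were imaged in 1,536-well plates, and nuclei stained with an antibody against cleaved PARP were counted against all DNA-stained nuclei to give the apoptosis fraction. Screening doses were chosen to leave most cells alive, and resting and induced cleaved-PARP levels differ strongly between cell lines.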

System: COLO829
Assay: cleaved PARP positive nuclei fraction relative to DMSO control; melanoma cells; higher = more apoptosis
Details: library dose: low library concentration; 72 h

Structure (SMILES) | cleaved PARP positive nuclei fraction [%]
Cc1cc(Nc2cc(N3CCN(C)CC3)nc(Sc3ccc(NC(=O)C4CC4)cc3)n2)n[nH]1 [Tozasertib] + N#Cc1c(O)c2c(-c3ccc(-c4ccccc4O)cc3)csc2[nH]c1=O [A769662] (first compound 0.006 µM, partner dose 2 µM) | 83.9
O=C(Nc1cc(C(F)(F)F)cc(C(F)(F)F)c1)c1cc(Cl)ccc1O + COc1ccc(COc2ccc(Cc3cnc(N)nc3N)cc2OC)cc1 [GW2580] (first compound 0.016 µM, partner dose 1 µM) | 175
O=C(/C=C/c1cccnc1)NCCCCC1CCN(C(=O)c2ccccc2)CC1 + COc1cc(N2CCC(N3CCN(C)CC3)CC2)ccc1Nc1ncc(Cl)c(Nc2ccccc2S(=O)(=O)C(C)C)n1 [NVP-TAE684] (first compound 0.01 µM, partner dose 0.08 µM) | 486
N#CC[C@H](C1CCCC1)n1cc(-c2ncnc3[nH]ccc23)cn1 [ruxolitinib] + Cn1cc(/C=C2\C(=O)Nc3cccnc32)c2ccccc21 [GW441756] (first compound 1 µM, partner dose 0.4 µM) | 108
CCCCCCCCCCCCCCCCCCOP(=O)([O-])OC1CC[N+](C)(C)CC1 [Perifosine] + Oc1nc(-c2ccc(C(F)(F)F)cc2)nc2c1CSCC2 [XAV939] (first compound 0.4 µM, partner dose 2 µM) | 61.1
O=C(/C=C/c1cccnc1)NCCCCC1CCN(C(=O)c2ccccc2)CC1 + Oc1nc(-c2ccc(C(F)(F)F)cc2)nc2c1CSCC2 [XAV939] (first compound 0.01 µM, partner dose 2 µM) | 74.1
Cc1ccc(Nc2nccc(N(C)c3ccc4c(C)n(C)nc4c3)n2)cc1S(N)(=O)=O [Pazopanib] + N#Cc1c(O)c2c(-c3ccc(-c4ccccc4O)cc3)csc2[nH]c1=O [A769662] (first compound 0.4 µM, partner dose 2 µM) | 108
N#CC[C@H](C1CCCC1)n1cc(-c2ncnc3[nH]ccc23)cn1 [ruxolitinib] + COc1cc2ncnc(Nc3ccc(Oc4ccccc4)cc3)c2cc1OC [SrcI1] (first compound 1 µM, partner dose 2 µM) | 60.3
O=C(Nc1cc(C(F)(F)F)cc(C(F)(F)F)c1)c1cc(Cl)ccc1O + CCN(CC)CCCCNc1ncc2cc(-c3cc(OC)cc(OC)c3)c(NC(=O)NC(C)(C)C)nc2n1 [PD173074] (first compound 0.016 µM, partner dose 0.1 µM) | 74.3
CCCCCCCCCCCCCCCCCCOP(=O)([O-])OC1CC[N+](C)(C)CC1 [Perifosine] + COc1ccc2c(c1)CCC1C2CCC2(C)C(NCCCCCCN3C(=O)C=CC3=O)CCC12 [U73122] (first compound 0.4 µM, partner dose 0.4 µM) | 213
O=c1[nH]nc(Sc2ncc([N+](=O)[O-])s2)n1-c1ccc2c(c1)OCCO2 + N#Cc1c(O)c2c(-c3ccc(-c4ccccc4O)cc3)csc2[nH]c1=O [A769662] (first compound 0.2 µM, partner dose 2 µM) | 48.9
O=c1[nH]nc(Sc2ncc([N+](=O)[O-])s2)n1-c1ccc2c(c1)OCCO2 + COc1ccc2c(c1)CCC1C2CCC2(C)C(NCCCCCCN3C(=O)C=CC3=O)CCC12 [U73122] (first compound 0.2 µM, partner dose 0.4 µM) | 71.7
N#CC[C@H](C1CCCC1)n1cc(-c2ncnc3[nH]ccc23)cn1 [ruxolitinib] + O=C(Nc1ccccc1)c1cc([N+](=O)[O-])ccc1Cl [GW9662] (first compound 1 µM, partner dose 2 µM) | 116
O=C(/C=C/c1cccnc1)NCCCCC1CCN(C(=O)c2ccccc2)CC1 + O=c1cc(-c2cccc3c2Sc2ccccc2S3)oc(N2CCOCC2)c1 [KU55933] (first compound 0.01 µM, partner dose 1 µM) | 68.9
CCCCCCCCCCCCCCCCCCOP(=O)([O-])OC1CC[N+](C)(C)CC1 [Perifosine] + Cc1cc([N+](=O)[O-])ccc1NS(=O)(=O)c1cc(Cl)ccc1Cl [FH535] (first compound 0.4 µM, partner dose 1 µM) | 57.9
N#CC[C@H](C1CCCC1)n1cc(-c2ncnc3[nH]ccc23)cn1 [ruxolitinib] + O=S(=O)(c1ccccc1)N(CC(F)(F)F)c1ccc(C(O)(C(F)(F)F)C(F)(F)F)cc1 [T0901317] (first compound 1 µM, partner dose 1.4 µM) | 80.5

Two entries drawn at random from the list so far, as already listed:
Structure (SMILES) | cleaved PARP positive nuclei fraction [%]
Cc1ccc(Nc2nccc(N(C)c3ccc4c(C)n(C)nc4c3)n2)cc1S(N)(=O)=O [Pazopanib] + N#Cc1c(O)c2c(-c3ccc(-c4ccccc4O)cc3)csc2[nH]c1=O [A769662] (first compound 0.4 µM, partner dose 2 µM) | 108
N#CC[C@H](C1CCCC1)n1cc(-c2ncnc3[nH]ccc23)cn1 [ruxolitinib] + O=C(Nc1ccccc1)c1cc([N+](=O)[O-])ccc1Cl [GW9662] (first compound 1 µM, partner dose 2 µM) | 116

The listing continues:

Structure (SMILES) | cleaved PARP positive nuclei fraction [%]
Cc1cn(-c2cc(NC(=O)c3ccc(C)c(Nc4nccc(-c5cccnc5)n4)c3)cc(C(F)(F)F)c2)cn1 [nilotinib] + COC(=O)c1sccc1S(=O)(=O)Nc1ccc(Nc2ccccc2)cc1OC [GSK0660] (first compound 0.2 µM, partner dose 1 µM) | 82.7
Cc1ccc(Nc2nccc(N(C)c3ccc4c(C)n(C)nc4c3)n2)cc1S(N)(=O)=O [Pazopanib] + O=C(O)C(=O)Nc1sc2c(c1C(=O)O)CCNC2 [TCS401] (first compound 0.4 µM, partner dose 1.66667 µM) | 142
N#CC[C@H](C1CCCC1)n1cc(-c2ncnc3[nH]ccc23)cn1 [ruxolitinib] + COc1ccc(COc2ccc(Cc3cnc(N)nc3N)cc2OC)cc1 [GW2580] (first compound 1 µM, partner dose 1 µM) | 75.6
Cc1ccc(Nc2nccc(N(C)c3ccc4c(C)n(C)nc4c3)n2)cc1S(N)(=O)=O [Pazopanib] + CCc1ccc(CCOc2ccc(CC3SC(=O)NC3=O)cc2)nc1 [pioglitazone] (first compound 0.4 µM, partner dose 2 µM) | 74.6
Cc1cc(Nc2cc(N3CCN(C)CC3)nc(Sc3ccc(NC(=O)C4CC4)cc3)n2)n[nH]1 [Tozasertib] + c1cc(-c2cnn3cc(-c4ccc(OCCN5CCCCC5)cc4)cnc23)ccn1 [Dorsomorphin] (first compound 0.006 µM, partner dose 0.4 µM) | 134
Cc1ccc(Nc2nccc(N(C)c3ccc4c(C)n(C)nc4c3)n2)cc1S(N)(=O)=O [Pazopanib] + COC(=O)c1sccc1S(=O)(=O)Nc1ccc(Nc2ccccc2)cc1OC [GSK0660] (first compound 0.4 µM, partner dose 1 µM) | 134
COc1cc([C@@H]2c3cc4c(cc3[C@@H](O[C@@H]3O[C@@H]5CO[C@@H](C)O[C@H]5[C@H](O)[C@H]3O)[C@H]3COC(=O)[C@H]23)OCO4)cc(OC)c1O [etoposide] + O=S(=O)(c1ccccc1)N(CC(F)(F)F)c1ccc(C(O)(C(F)(F)F)C(F)(F)F)cc1 [T0901317] (first compound 0.02 µM, partner dose 1.4 µM) | 205
O=c1[nH]nc(Sc2ncc([N+](=O)[O-])s2)n1-c1ccc2c(c1)OCCO2 + c1cc(-c2cnn3cc(-c4ccc(OCCN5CCCCC5)cc4)cnc23)ccn1 [Dorsomorphin] (first compound 0.2 µM, partner dose 0.4 µM) | 20.8
Cc1cc(Nc2cc(N3CCN(C)CC3)nc(Sc3ccc(NC(=O)C4CC4)cc3)n2)n[nH]1 [Tozasertib] + Oc1cc(-c2nc(-c3ccccc3)[nH]c2-c2ccncc2)ccc1Cl [L779450] (first compound 0.006 µM, partner dose 0.2 µM) | 62.3
Cc1cc(Nc2cc(N3CCN(C)CC3)nc(Sc3ccc(NC(=O)C4CC4)cc3)n2)n[nH]1 [Tozasertib] + Cn1cc(/C=C2\C(=O)Nc3cccnc32)c2ccccc21 [GW441756] (first compound 0.006 µM, partner dose 0.4 µM) | 94.9
Cc1cn(-c2cc(NC(=O)c3ccc(C)c(Nc4nccc(-c5cccnc5)n4)c3)cc(C(F)(F)F)c2)cn1 [nilotinib] + O=C(O)C(=O)Nc1sc2c(c1C(=O)O)CCNC2 [TCS401] (first compound 0.2 µM, partner dose 1.66667 µM) | 74.4
Cc1cn(-c2cc(NC(=O)c3ccc(C)c(Nc4nccc(-c5cccnc5)n4)c3)cc(C(F)(F)F)c2)cn1 [nilotinib] + O=S(=O)(c1ccccc1)N(CC(F)(F)F)c1ccc(C(O)(C(F)(F)F)C(F)(F)F)cc1 [T0901317] (first compound 0.2 µM, partner dose 1.4 µM) | 81.8
COc1cc([C@@H]2c3cc4c(cc3[C@@H](O[C@@H]3O[C@@H]5CO[C@@H](C)O[C@H]5[C@H](O)[C@H]3O)[C@H]3COC(=O)[C@H]23)OCO4)cc(OC)c1O [etoposide] + Cc1cc([N+](=O)[O-])ccc1NS(=O)(=O)c1cc(Cl)ccc1Cl [FH535] (first compound 0.02 µM, partner dose 1 µM) | 108
N#CC[C@H](C1CCCC1)n1cc(-c2ncnc3[nH]ccc23)cn1 [ruxolitinib] + N#Cc1c(O)c2c(-c3ccc(-c4ccccc4O)cc3)csc2[nH]c1=O [A769662] (first compound 1 µM, partner dose 2 µM) | 41.6
COc1cc([C@@H]2c3cc4c(cc3[C@@H](O[C@@H]3O[C@@H]5CO[C@@H](C)O[C@H]5[C@H](O)[C@H]3O)[C@H]3COC(=O)[C@H]23)OCO4)cc(OC)c1O [etoposide] + O=C1NC(=O)/C(=C/c2ccc(-c3ccc(F)cc3O)o2)S1 [AS252424] (first compound 0.02 µM, partner dose 1 µM) | 59.3
